# Assays:
# [1] = humans, intrajejunal bolus solution with sodium caprate
# [2] = oral, with coffee or orange juice; cited from earlier work
# [3] = humans, aqueous intrajejunal infusion over 25 minutes with sodium caprate
compound,measurement,setting,value
NCCCC(O)(P(=O)(O)O)P(=O)(O)O [alendronate],gastrointestinal absorption of alendronate compared to Fosamax reference tablet,[1],significantly enhanced
same,impairment of absorption by coffee or orange juice,[2],≥ 60%
same,systemic absorption of alendronate,[3],considerably enhanced

# — patent US8119159B2, “Solid oral dosage form containing an enhancer” (Merrion Research III Limited, priority 1999, dated 2012)
